pEC50: −log10 of the molar value. For at least one compound, name, drawing or mass did not settle the structure.
Molecular target: T1, MZF3E (Mus musculus, UniProt P24161)
T1 construct: expressed in transfected cells
Assay: NFAT-SEAP reporter via myristoylated chimeric CD3/FKBP12 (MZF3E) receptor in Jurkat T cells
Assay type: cell-based
Settings: MZF3E in human (Jurkat) T cells, NFAT-driven SEAP; read-out: EC50, secretion of alkaline phosphatase (SEAP)

By UniProt entry, the sequences of proteins in these tests, tags left out. Chains listed by the source or under a name are the forms on record and can include a tag or linker.
UniProt P24161, with tags, fused parts or gaps limits assumed: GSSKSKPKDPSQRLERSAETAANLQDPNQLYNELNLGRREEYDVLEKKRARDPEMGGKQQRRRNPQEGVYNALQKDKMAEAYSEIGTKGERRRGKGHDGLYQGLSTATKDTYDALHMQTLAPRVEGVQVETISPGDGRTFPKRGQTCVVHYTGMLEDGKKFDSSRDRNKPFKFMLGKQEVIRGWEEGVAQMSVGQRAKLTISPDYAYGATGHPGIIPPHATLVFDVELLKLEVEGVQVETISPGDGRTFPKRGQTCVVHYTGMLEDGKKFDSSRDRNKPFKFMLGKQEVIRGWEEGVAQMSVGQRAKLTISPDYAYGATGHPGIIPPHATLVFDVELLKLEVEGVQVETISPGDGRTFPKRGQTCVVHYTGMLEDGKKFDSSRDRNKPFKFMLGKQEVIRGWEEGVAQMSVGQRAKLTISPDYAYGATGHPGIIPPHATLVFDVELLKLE

SMILES: CO[C@H]1C[C@@H](C)C/C(C)=C/[C@@H](CCOC(=O)NCc2ccc(CNC(=O)OCC[C@@H]3/C=C(\C)C[C@H](C)C[C@H](OC)[C@H]4O[C@@](O)(C(=O)C(=O)N5CCCC[C@H]5C(=O)O[C@H](/C(C)=C/[C@@H]5CC[C@@H](O)[C@H](OC)C5)[C@H](C)[C@@H](O)CC3=O)[C@H](C)C[C@@H]4OC)cc2)C(=O)C[C@H](O)[C@@H](C)[C@@H](/C(C)=C/[C@@H]2CC[C@@H](O)[C@H](OC)C2)OC(=O)[C@@H]2CCCCN2C(=O)C(=O)[C@]2(O)O[C@H]1[C@@H](OC)C[C@H]2C [FK1012]
- pEC50: 7.30
